Results taken from PMC7160059.
No constants are given. Whether binding was seen depends on the method and setting. Binding seen in cells or lysates may run through a third protein. Some entries that bind do so weakly or less than the wild type.

Sequences of proteins named here, by UniProt entry; tags and fusion partners are left off. A change or cut given only in a name is not applied to a line headed by its entry.
UniProt Q16665: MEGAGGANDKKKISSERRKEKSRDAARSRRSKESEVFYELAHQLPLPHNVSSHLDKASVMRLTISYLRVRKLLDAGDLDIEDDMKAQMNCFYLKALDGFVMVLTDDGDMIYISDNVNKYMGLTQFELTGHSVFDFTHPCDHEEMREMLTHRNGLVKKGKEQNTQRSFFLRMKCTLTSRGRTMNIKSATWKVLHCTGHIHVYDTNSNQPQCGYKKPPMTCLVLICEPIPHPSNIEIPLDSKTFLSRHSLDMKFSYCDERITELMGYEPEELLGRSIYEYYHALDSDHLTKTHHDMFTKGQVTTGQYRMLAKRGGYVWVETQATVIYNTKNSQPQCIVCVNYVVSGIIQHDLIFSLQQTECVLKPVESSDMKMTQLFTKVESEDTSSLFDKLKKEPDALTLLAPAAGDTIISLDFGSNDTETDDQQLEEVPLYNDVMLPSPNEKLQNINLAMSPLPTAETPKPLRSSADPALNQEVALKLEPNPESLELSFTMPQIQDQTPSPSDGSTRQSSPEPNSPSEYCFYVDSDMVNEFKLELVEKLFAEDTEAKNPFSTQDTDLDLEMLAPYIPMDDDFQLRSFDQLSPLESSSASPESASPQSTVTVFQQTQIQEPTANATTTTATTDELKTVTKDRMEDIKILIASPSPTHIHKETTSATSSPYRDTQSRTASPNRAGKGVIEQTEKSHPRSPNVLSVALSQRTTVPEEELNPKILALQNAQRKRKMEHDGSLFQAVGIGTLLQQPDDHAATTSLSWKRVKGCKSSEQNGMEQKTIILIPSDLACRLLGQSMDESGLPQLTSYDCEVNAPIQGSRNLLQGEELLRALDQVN
UniProt Q01714: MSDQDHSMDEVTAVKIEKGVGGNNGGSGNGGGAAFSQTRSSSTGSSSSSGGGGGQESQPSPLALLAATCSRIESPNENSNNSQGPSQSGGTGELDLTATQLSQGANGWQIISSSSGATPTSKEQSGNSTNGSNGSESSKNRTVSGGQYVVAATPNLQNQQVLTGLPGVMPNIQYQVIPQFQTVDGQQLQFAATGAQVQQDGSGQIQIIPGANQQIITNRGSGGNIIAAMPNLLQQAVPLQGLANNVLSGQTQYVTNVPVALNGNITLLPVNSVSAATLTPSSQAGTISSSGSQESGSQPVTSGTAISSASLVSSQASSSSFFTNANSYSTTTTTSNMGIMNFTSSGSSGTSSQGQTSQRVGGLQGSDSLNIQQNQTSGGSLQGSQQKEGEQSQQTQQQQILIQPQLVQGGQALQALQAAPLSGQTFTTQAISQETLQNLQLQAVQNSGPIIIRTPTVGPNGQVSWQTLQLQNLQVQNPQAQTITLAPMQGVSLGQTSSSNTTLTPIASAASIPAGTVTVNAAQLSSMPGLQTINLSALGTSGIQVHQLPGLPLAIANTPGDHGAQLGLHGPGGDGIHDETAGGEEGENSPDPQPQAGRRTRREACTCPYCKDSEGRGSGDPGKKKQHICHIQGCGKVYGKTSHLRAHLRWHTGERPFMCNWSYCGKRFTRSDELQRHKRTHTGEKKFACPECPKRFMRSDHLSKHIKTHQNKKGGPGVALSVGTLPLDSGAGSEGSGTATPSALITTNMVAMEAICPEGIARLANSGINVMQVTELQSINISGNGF

Biological target: HIF-1αR30A (UniProt Q16665)
Assay: co-IP; nuclear fractions of GH3 cells (hypoxic); Protein G Dynabeads coupled to the primary antibody (anti-HIF-1α), overnight at 4 °C; immunoprecipitates blotted for Sp1; rabbit IgG as control

binding: binds
Substance: Sp1 (from UniProt Q01714 1-786)
